Laboratory results published in the supplement of paper PMC12823440, “Inhibitors supercharge kinase turnover through native proteolytic circuits” (Nature, 2025).
Where a name gives a salt, the structure may show the parent alone. Some of the results follow. The calls rarely recur for the same compound in another form.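 Kinases were expressed as nanoluciferase fusions in K562 cells and luminescence was read every 4 h between 2 and 18 h as percent of control, DMSO set to 100% and a positive control to 0%. A time point counts as decreased when the signal drops significantly (2 sigma). The hit call is the authors' own, does not follow from the count of time points alone, and its rule is not shown.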

Amino acid sequences for entries named in this document (tags omitted). A change or cut given only in a name is not applied to a line headed by its entry.
UniProt P50613: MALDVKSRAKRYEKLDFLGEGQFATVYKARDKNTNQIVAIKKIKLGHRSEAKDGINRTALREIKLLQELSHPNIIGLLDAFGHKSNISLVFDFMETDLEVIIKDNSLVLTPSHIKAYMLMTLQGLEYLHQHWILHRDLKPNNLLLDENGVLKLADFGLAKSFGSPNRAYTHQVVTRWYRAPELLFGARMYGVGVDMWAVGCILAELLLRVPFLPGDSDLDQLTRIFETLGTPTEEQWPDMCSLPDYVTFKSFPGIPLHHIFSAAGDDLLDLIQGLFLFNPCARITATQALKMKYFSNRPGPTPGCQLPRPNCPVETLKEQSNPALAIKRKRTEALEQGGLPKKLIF
UniProt P50750, whole entry: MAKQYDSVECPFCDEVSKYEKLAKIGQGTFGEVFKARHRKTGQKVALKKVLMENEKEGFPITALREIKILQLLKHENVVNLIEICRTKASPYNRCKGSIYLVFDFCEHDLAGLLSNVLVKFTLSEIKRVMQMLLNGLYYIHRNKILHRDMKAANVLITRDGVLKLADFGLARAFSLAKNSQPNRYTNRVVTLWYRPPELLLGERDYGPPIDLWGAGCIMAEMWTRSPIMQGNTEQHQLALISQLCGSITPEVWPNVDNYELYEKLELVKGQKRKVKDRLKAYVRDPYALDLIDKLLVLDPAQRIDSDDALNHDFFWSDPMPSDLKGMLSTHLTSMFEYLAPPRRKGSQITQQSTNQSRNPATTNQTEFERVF
UniProt O96017, whole entry: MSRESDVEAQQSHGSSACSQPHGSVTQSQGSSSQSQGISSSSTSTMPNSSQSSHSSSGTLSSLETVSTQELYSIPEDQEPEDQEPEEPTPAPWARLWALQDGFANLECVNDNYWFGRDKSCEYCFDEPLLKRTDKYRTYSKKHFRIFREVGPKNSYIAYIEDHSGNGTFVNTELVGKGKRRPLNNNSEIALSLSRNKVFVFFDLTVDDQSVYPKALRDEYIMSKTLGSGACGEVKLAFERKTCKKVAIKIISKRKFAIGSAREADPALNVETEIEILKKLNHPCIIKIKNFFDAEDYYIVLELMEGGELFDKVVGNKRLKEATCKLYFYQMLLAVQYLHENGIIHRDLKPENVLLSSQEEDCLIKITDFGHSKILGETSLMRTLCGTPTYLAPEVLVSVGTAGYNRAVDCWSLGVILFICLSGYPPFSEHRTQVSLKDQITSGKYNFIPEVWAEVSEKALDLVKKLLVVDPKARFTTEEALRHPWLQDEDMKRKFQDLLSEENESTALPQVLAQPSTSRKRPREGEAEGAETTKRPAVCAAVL
UniProt P07333, whole entry: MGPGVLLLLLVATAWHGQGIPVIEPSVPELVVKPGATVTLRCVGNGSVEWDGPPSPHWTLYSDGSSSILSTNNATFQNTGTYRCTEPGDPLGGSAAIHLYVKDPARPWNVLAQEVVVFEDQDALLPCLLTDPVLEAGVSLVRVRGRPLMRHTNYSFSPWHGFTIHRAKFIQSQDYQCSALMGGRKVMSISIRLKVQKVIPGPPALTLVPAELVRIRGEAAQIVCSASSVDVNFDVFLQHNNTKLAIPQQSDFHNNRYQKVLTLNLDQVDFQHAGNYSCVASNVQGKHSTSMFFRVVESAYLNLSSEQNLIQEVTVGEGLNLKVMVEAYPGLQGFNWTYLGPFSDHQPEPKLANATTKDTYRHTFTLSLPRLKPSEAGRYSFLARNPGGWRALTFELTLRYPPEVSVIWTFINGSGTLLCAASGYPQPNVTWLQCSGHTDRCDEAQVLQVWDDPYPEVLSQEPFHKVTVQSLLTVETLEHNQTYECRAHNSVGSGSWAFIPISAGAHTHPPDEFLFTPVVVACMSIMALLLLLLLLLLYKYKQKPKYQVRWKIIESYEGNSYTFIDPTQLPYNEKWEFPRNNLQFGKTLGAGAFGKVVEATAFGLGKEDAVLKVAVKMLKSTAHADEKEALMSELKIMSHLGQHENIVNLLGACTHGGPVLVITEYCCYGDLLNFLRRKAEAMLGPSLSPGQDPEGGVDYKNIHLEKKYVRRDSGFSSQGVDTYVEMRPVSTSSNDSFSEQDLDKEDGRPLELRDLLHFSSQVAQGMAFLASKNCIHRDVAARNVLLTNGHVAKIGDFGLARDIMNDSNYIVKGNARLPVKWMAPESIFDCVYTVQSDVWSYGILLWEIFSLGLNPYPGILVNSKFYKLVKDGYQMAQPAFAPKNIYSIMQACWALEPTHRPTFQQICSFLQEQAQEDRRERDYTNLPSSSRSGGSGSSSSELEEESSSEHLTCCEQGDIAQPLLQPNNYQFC
UniProt P41240: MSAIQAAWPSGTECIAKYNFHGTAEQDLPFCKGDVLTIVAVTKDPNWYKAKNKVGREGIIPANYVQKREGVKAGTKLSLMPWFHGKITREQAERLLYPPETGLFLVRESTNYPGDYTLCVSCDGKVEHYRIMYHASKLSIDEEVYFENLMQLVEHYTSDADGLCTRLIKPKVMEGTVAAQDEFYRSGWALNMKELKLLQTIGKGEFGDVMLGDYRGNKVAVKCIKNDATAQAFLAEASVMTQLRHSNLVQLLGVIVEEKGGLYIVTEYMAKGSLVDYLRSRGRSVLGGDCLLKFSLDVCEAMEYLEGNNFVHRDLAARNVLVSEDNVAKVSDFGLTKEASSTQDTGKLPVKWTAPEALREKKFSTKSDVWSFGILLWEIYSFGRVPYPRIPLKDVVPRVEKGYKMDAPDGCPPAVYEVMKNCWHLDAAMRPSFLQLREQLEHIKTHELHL
UniProt P48729: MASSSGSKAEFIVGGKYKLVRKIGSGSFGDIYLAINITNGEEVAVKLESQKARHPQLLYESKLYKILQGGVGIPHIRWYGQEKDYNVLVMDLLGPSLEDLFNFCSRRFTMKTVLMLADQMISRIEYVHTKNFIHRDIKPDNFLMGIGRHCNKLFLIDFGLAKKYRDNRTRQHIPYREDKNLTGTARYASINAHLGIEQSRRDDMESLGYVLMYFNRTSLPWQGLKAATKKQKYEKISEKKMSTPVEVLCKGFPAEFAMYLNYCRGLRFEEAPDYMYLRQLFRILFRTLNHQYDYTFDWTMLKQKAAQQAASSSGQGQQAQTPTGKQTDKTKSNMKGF
UniProt P48730: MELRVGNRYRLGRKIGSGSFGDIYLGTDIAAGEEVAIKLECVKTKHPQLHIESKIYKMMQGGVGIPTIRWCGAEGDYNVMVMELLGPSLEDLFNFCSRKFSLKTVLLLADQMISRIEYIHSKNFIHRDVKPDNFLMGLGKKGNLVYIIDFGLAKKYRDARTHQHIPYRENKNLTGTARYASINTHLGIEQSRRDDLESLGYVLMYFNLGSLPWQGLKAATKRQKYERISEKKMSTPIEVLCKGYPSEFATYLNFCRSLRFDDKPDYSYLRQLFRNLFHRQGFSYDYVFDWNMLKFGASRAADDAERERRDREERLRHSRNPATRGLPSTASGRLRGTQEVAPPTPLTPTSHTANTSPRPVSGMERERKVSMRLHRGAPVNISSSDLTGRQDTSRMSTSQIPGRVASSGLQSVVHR
UniProt Q08345: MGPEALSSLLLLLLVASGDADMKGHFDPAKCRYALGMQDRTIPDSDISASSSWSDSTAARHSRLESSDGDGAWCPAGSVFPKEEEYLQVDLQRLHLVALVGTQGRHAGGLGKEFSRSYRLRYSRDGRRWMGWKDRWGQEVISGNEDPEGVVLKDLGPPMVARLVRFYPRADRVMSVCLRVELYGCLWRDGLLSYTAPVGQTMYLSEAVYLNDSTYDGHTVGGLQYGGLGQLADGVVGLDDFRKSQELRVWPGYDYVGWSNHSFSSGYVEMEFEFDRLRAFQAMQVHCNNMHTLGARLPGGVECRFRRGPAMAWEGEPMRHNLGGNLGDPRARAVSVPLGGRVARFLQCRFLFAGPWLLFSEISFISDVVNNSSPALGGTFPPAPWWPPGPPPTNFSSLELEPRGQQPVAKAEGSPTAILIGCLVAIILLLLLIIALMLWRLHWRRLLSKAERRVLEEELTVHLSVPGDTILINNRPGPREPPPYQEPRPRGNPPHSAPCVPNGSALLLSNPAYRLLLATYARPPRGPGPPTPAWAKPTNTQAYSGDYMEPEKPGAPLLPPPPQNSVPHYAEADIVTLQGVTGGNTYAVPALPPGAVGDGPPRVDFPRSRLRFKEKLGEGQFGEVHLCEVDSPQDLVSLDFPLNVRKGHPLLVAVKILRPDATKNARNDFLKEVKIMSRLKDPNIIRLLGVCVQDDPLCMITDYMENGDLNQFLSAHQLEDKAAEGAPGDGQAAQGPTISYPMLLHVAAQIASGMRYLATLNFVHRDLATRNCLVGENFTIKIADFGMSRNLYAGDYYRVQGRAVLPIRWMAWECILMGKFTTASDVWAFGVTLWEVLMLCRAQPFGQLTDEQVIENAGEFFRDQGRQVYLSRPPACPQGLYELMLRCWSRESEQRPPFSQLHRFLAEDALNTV
UniProt Q9Y463, whole entry, looked up: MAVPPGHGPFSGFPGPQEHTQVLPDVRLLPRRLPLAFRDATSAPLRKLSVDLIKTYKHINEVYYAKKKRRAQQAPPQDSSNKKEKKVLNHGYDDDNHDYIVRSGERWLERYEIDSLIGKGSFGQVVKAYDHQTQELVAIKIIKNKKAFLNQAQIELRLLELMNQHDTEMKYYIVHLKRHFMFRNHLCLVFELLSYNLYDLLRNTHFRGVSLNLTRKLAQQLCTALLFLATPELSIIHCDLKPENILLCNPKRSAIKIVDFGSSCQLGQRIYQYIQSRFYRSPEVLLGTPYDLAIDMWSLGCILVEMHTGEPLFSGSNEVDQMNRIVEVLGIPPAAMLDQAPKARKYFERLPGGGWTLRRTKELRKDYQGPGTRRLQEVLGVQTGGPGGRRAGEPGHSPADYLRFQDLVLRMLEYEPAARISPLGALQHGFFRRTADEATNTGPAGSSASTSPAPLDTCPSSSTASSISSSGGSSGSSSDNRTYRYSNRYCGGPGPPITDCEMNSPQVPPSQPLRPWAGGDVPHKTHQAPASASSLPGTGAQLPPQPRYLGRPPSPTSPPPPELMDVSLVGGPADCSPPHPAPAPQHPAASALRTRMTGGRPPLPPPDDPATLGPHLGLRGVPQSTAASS
UniProt Q92630: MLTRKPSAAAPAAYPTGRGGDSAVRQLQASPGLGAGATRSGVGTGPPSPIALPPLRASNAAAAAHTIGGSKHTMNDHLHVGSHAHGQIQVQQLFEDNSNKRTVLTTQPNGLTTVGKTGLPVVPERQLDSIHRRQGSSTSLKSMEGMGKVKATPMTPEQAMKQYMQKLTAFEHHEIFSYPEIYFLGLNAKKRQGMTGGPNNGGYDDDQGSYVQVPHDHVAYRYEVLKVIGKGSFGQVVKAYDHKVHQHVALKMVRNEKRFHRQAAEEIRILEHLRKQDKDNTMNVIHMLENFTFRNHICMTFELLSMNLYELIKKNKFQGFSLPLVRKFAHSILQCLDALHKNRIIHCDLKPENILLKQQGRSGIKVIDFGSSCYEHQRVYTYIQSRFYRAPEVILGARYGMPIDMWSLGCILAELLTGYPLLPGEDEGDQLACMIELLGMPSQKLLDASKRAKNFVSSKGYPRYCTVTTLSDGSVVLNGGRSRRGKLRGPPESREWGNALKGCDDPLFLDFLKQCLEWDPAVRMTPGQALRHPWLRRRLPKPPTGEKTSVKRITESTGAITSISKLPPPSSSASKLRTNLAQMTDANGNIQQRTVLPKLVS
UniProt P29317, whole entry: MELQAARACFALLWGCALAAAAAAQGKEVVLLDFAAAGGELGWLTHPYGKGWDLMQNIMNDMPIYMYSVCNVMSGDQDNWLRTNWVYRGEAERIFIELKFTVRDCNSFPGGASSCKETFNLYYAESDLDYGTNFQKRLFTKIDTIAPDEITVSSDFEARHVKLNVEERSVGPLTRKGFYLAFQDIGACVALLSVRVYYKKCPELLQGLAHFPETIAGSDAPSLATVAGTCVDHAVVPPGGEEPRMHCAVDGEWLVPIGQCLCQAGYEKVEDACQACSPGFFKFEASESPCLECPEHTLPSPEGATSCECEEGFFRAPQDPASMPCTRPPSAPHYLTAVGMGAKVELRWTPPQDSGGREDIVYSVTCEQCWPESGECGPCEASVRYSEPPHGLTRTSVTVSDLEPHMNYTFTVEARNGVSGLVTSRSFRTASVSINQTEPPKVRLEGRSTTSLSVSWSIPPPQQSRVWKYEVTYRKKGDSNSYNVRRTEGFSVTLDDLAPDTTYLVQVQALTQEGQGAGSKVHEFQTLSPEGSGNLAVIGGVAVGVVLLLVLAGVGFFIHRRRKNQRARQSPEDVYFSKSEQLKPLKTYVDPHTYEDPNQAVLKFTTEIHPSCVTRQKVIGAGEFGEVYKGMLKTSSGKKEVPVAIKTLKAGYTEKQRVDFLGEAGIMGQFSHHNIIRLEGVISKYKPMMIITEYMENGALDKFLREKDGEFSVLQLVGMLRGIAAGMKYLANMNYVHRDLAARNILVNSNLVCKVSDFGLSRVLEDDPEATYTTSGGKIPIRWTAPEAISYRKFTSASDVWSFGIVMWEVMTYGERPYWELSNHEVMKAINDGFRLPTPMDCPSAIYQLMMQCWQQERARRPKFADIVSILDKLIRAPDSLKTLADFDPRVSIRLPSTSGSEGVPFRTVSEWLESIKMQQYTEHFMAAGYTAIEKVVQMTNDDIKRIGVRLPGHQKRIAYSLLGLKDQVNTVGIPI

Tests used:
Assay in all cases: kinase-Nluc reporter destabilization hit call (1 = scored as downregulated) (binary); higher = compound decreases kinase abundance
Settings in all cases: K562; 2-18 h
CDK7 = CDK7 (UniProt P50613)
CDK9 = CDK9 (UniProt P50750)
CHEK2 = CHEK2 (UniProt O96017)
CSF1R = CSF1R (UniProt P07333)
CSK = CSK (UniProt P41240)
CSNK1A1 = CSNK1A1 (UniProt P48729)
CSNK1D = CSNK1D (UniProt P48730)
DDR1 = DDR1 (UniProt Q08345)
DYRK1B = DYRK1B (UniProt Q9Y463)
DYRK2 = DYRK2 (UniProt Q92630)
EGFR = EGFR (UniProt P00533)
EGFR_G719S = EGFR_G719S (UniProt P00533)
EGFR_G719S_T790M = EGFR_G719S_T790M (UniProt P00533)
EGFR_L718V = EGFR_L718V (UniProt P00533)
EGFR_L858R = EGFR_L858R (UniProt P00533)
EGFR_L861Q = EGFR_L861Q (UniProt P00533)
EGFR_T790M = EGFR_T790M (UniProt P00533)
EPHA2 = EPHA2 (UniProt P29317)
ERBB3 = ERBB3 (UniProt P21860)
[1] = molecular target: ERBB4_R711C (clone: ERBB4_mut) (UniProt Q15303)

Measured: kinase-Nluc reporter destabilization hit call

O=C1C=CC[C@@H]2[C@H]3CCCN4CCC[C@@H](CN12)[C@@H]34 [Sophocarpine (monohydrate)] (2.5 µM)
inactive: CDK7 = 0 | CDK9 = 0 | CHEK2 = 0 | CSF1R 0 | CSK 0 | CSNK1A1 = 0 | CSNK1D 0 | DDR1 = 0 | DYRK1B 0 | DYRK2 = 0 | EGFR 0 | EGFR_G719S 0 | EGFR_G719S_T790M 0 | EGFR_L718V 0 | EGFR_L858R 0 | EGFR_L861Q 0 | EGFR_T790M 0 | EPHA2 = 0 | ERBB3 = 0 | [1] 0

Cc1ccccc1-n1c(Cn2ncc3c(N)ncnc32)nc2cccc(C)c2c1=O (10 µM)
inactive: CDK7 = 0 | CDK9 = 0 | CHEK2 = 0 | CSF1R 0 | CSK 0 | CSNK1A1 = 0 | CSNK1D 0 | DDR1 = 0 | DYRK1B 0 | DYRK2 = 0 | EGFR 0 | EGFR_G719S 0 | EGFR_G719S_T790M 0 | EGFR_L718V 0 | EGFR_L858R 0 | EGFR_L861Q 0 | EGFR_T790M 0 | EPHA2 = 0 | ERBB3 = 0 | [1] 0

CC(=O)O[C@H]1[C@H]2[C@@H](OC(=O)Cc3ccccc3)[C@@H](C)C[C@]2(OC(C)=O)C(=O)/C(C)=C/[C@@H]2[C@H](CC[C@@]13CO3)C2(C)C [Euphorbiasteroid] (10 µM)
inactive: CDK7 = 0 | CDK9 = 0 | CHEK2 = 0 | CSF1R 0 | CSK 0 | CSNK1A1 = 0 | CSNK1D 0 | DDR1 = 0 | DYRK1B 0 | DYRK2 = 0 | EGFR 0 | EGFR_G719S 0 | EGFR_G719S_T790M 0 | EGFR_L718V 0 | EGFR_L858R 0 | EGFR_L861Q 0 | EGFR_T790M 0 | EPHA2 = 0 | ERBB3 = 0 | [1] 0

N#CC(C#N)=Cc1ccc([N+](=O)[O-])c(O)c1 (10 µM)
inactive: CDK7 = 0 | CDK9 = 0 | CHEK2 = 0 | CSF1R 0 | CSK 0 | CSNK1A1 = 0 | CSNK1D 0 | DDR1 = 0 | DYRK1B 0 | DYRK2 = 0 | EGFR 0 | EGFR_G719S 0 | EGFR_G719S_T790M 0 | EGFR_L718V 0 | EGFR_L858R 0 | EGFR_L861Q 0 | EGFR_T790M 0 | EPHA2 = 0 | ERBB3 = 0 | [1] 0

CC(C)=CC[C@@H](OC(=O)CC(C)(C)O)C1=CC(=O)c2c(O)ccc(O)c2C1=O [β-Hydroxyisovalerylshikonin] (2.5 µM)
inactive: CDK7 = 0 | CDK9 = 0 | CHEK2 = 0 | CSF1R 0 | CSK 0 | CSNK1A1 = 0 | CSNK1D 0 | DDR1 = 0 | DYRK1B 0 | DYRK2 = 0 | EGFR 0 | EGFR_G719S 0 | EGFR_G719S_T790M 0 | EGFR_L718V 0 | EGFR_L858R 0 | EGFR_L861Q 0 | EGFR_T790M 0 | EPHA2 = 0 | ERBB3 = 0 | [1] 0

CC(=O)Oc1ccc(/C=C/c2cc(OC(C)=O)cc(OC(C)=O)c2)cc1 [Triacetylresveratrol] (10 µM)
inactive: CDK7 = 0 | CDK9 = 0 | CHEK2 = 0 | CSF1R 0 | CSK 0 | CSNK1A1 = 0 | CSNK1D 0 | DDR1 = 0 | DYRK1B 0 | DYRK2 = 0 | EGFR 0 | EGFR_G719S 0 | EGFR_G719S_T790M 0 | EGFR_L718V 0 | EGFR_L858R 0 | EGFR_L861Q 0 | EGFR_T790M 0 | EPHA2 = 0 | ERBB3 = 0 | [1] 0

C[C@H](Nc1ncnc2[nH]cnc12)c1nc2ccc(F)cc2c(=O)n1-c1ccccc1 [Acalisib] (10 µM)
inactive: CDK7 = 0 | CDK9 = 0 | CHEK2 = 0 | CSF1R 0 | CSK 0 | CSNK1A1 = 0 | CSNK1D 0 | DDR1 = 0 | DYRK1B 0 | DYRK2 = 0 | EGFR 0 | EGFR_G719S 0 | EGFR_G719S_T790M 0 | EGFR_L718V 0 | EGFR_L858R 0 | EGFR_L861Q 0 | EGFR_T790M 0 | EPHA2 = 0 | ERBB3 = 0 | [1] 0

COc1ccc2c(c1)/C(=C/c1cnc[nH]1)C(=O)N2 (2.5 µM)
inactive: CDK7 = 0 | CDK9 = 0 | CHEK2 = 0 | CSF1R 0 | CSK 0 | CSNK1A1 = 0 | CSNK1D 0 | DDR1 = 0 | DYRK1B 0 | DYRK2 = 0 | EGFR 0 | EGFR_G719S 0 | EGFR_G719S_T790M 0 | EGFR_L718V 0 | EGFR_L858R 0 | EGFR_L861Q 0 | EGFR_T790M 0 | EPHA2 = 0 | ERBB3 = 0 | [1] 0

O=C(O)c1sc2cc(Cl)ccc2c1Cl (10 µM)
inactive: CDK7 = 0 | CDK9 = 0 | CHEK2 = 0 | CSF1R 0 | CSK 0 | CSNK1A1 = 0 | CSNK1D 0 | DDR1 = 0 | DYRK1B 0 | DYRK2 = 0 | EGFR 0 | EGFR_G719S 0 | EGFR_G719S_T790M 0 | EGFR_L718V 0 | EGFR_L858R 0 | EGFR_L861Q 0 | EGFR_T790M 0 | EPHA2 = 0 | ERBB3 = 0 | [1] 0

CC1=C[C@]23C(=O)[C@@H](C=C(CO)[C@@H](O)[C@]2(O)[C@H]1O)[C@H]1[C@@H](C[C@H]3C)C1(C)C [Ingenol] (10 µM)
inactive: CDK7 = 0 | CDK9 = 0 | CHEK2 = 0 | CSF1R 0 | CSK 0 | CSNK1A1 = 0 | CSNK1D 0 | DDR1 = 0 | DYRK1B 0 | DYRK2 = 0 | EGFR 0 | EGFR_G719S 0 | EGFR_G719S_T790M 0 | EGFR_L718V 0 | EGFR_L858R 0 | EGFR_L861Q 0 | EGFR_T790M 0 | EPHA2 = 0 | ERBB3 = 0 | [1] 0

COc1ccc(/C=C/c2cc(OC)c(OC)c(OC)c2)cc1 (2.5 µM)
inactive: CDK7 = 0 | CDK9 = 0 | CHEK2 = 0 | CSF1R 0 | CSK 0 | CSNK1A1 = 0 | CSNK1D 0 | DDR1 = 0 | DYRK1B 0 | DYRK2 = 0 | EGFR 0 | EGFR_G719S 0 | EGFR_G719S_T790M 0 | EGFR_L718V 0 | EGFR_L858R 0 | EGFR_L861Q 0 | EGFR_T790M 0 | EPHA2 = 0 | ERBB3 = 0 | [1] 0

C=CC(=O)Nc1ccc2[nH]c(=O)n(C3CCN(Cc4ccc(-c5nc6cc[nH]c(=O)c6cc5-c5ccccc5)cc4)CC3)c2c1 [Borussertib] (10 µM)
inactive: CDK7 = 0 | CDK9 = 0 | CHEK2 = 0 | CSF1R 0 | CSK 0 | CSNK1A1 = 0 | CSNK1D 0 | DDR1 = 0 | DYRK1B 0 | DYRK2 = 0 | EGFR 0 | EGFR_G719S 0 | EGFR_G719S_T790M 0 | EGFR_L718V 0 | EGFR_L858R 0 | EGFR_L861Q 0 | EGFR_T790M 0 | EPHA2 = 0 | ERBB3 = 0 | [1] 0

N#CC(C#N)=NNc1cccc(Cl)c1 (2.5 µM)
inactive: CDK7 = 0 | CDK9 = 0 | CHEK2 = 0 | CSF1R 0 | CSK 0 | CSNK1A1 = 0 | CSNK1D 0 | DDR1 = 0 | DYRK1B 0 | DYRK2 = 0 | EGFR 0 | EGFR_G719S 0 | EGFR_G719S_T790M 0 | EGFR_L718V 0 | EGFR_L858R 0 | EGFR_L861Q 0 | EGFR_T790M 0 | EPHA2 = 0 | ERBB3 = 0 | [1] 0

Nc1ncnc2c1ncn2[C@@H]1O[C@@H]2COP(O)(=S)O[C@H]2[C@H]1O (stereo not given in full) [Sp-cAMPS (sodium salt)] (10 µM)
inactive: CDK7 = 0 | CDK9 = 0 | CHEK2 = 0 | CSF1R 0 | CSK 0 | CSNK1A1 = 0 | CSNK1D 0 | DDR1 = 0 | DYRK1B 0 | DYRK2 = 0 | EGFR 0 | EGFR_G719S 0 | EGFR_G719S_T790M 0 | EGFR_L718V 0 | EGFR_L858R 0 | EGFR_L861Q 0 | EGFR_T790M 0 | EPHA2 = 0 | ERBB3 = 0 | [1] 0

Two entries drawn at random from the list so far, as already listed:
CC(C)=CC[C@@H](OC(=O)CC(C)(C)O)C1=CC(=O)c2c(O)ccc(O)c2C1=O [β-Hydroxyisovalerylshikonin] (2.5 µM)
inactive: CDK7 = 0 | CDK9 = 0 | CHEK2 = 0 | CSF1R 0 | CSK 0 | CSNK1A1 = 0 | CSNK1D 0 | DDR1 = 0 | DYRK1B 0 | DYRK2 = 0 | EGFR 0 | EGFR_G719S 0 | EGFR_G719S_T790M 0 | EGFR_L718V 0 | EGFR_L858R 0 | EGFR_L861Q 0 | EGFR_T790M 0 | EPHA2 = 0 | ERBB3 = 0 | [1] 0

C[C@H](Nc1ncnc2[nH]cnc12)c1nc2ccc(F)cc2c(=O)n1-c1ccccc1 [Acalisib] (10 µM)
inactive: CDK7 = 0 | CDK9 = 0 | CHEK2 = 0 | CSF1R 0 | CSK 0 | CSNK1A1 = 0 | CSNK1D 0 | DDR1 = 0 | DYRK1B 0 | DYRK2 = 0 | EGFR 0 | EGFR_G719S 0 | EGFR_G719S_T790M 0 | EGFR_L718V 0 | EGFR_L858R 0 | EGFR_L861Q 0 | EGFR_T790M 0 | EPHA2 = 0 | ERBB3 = 0 | [1] 0

The listing continues.

C/C(O)=C(\C#N)C(=O)Nc1cc(Br)ccc1Br (10 µM)
inactive: CDK7 = 0 | CDK9 = 0 | CHEK2 = 0 | CSF1R 0 | CSK 0 | CSNK1A1 = 0 | CSNK1D 0 | DDR1 = 0 | DYRK1B 0 | DYRK2 = 0 | EGFR 0 | EGFR_G719S 0 | EGFR_G719S_T790M 0 | EGFR_L718V 0 | EGFR_L858R 0 | EGFR_L861Q 0 | EGFR_T790M 0 | EPHA2 = 0 | ERBB3 = 0 | [1] 0

CN(C)C(=O)c1ccc(Cn2c(C(=O)O)cc3c(Br)cc(Sc4ccc(Cl)c(Cl)c4)cc32)cc1 [Rheb inhibitor NR1] (10 µM)
inactive: CDK7 = 0 | CDK9 = 0 | CHEK2 = 0 | CSF1R 0 | CSK 0 | CSNK1A1 = 0 | CSNK1D 0 | DDR1 = 0 | DYRK1B 0 | DYRK2 = 0 | EGFR 0 | EGFR_G719S 0 | EGFR_G719S_T790M 0 | EGFR_L718V 0 | EGFR_L858R 0 | EGFR_L861Q 0 | EGFR_T790M 0 | EPHA2 = 0 | ERBB3 = 0 | [1] 0

COc1ccc2c(c1)[nH]c1c(C)nccc12 [Harmine] (10 µM)
inactive: CDK7 = 0 | CDK9 = 0 | CHEK2 = 0 | CSF1R 0 | CSK 0 | CSNK1A1 = 0 | CSNK1D 0 | DDR1 = 0 | DYRK1B 0 | DYRK2 = 0 | EGFR 0 | EGFR_G719S 0 | EGFR_G719S_T790M 0 | EGFR_L718V 0 | EGFR_L858R 0 | EGFR_L861Q 0 | EGFR_T790M 0 | EPHA2 = 0 | ERBB3 = 0 | [1] 0
